Assay results as given in article PMC8885197.
No constants are given. Whether binding was seen depends on the method and setting. In cells and extracts the contact can be indirect. Some entries that bind do so weakly or less than the wild type. Sequences can lack the tags named with a protein.

Chains of the proteins cited; added tags and fusions are not shown.
UniProt O15169: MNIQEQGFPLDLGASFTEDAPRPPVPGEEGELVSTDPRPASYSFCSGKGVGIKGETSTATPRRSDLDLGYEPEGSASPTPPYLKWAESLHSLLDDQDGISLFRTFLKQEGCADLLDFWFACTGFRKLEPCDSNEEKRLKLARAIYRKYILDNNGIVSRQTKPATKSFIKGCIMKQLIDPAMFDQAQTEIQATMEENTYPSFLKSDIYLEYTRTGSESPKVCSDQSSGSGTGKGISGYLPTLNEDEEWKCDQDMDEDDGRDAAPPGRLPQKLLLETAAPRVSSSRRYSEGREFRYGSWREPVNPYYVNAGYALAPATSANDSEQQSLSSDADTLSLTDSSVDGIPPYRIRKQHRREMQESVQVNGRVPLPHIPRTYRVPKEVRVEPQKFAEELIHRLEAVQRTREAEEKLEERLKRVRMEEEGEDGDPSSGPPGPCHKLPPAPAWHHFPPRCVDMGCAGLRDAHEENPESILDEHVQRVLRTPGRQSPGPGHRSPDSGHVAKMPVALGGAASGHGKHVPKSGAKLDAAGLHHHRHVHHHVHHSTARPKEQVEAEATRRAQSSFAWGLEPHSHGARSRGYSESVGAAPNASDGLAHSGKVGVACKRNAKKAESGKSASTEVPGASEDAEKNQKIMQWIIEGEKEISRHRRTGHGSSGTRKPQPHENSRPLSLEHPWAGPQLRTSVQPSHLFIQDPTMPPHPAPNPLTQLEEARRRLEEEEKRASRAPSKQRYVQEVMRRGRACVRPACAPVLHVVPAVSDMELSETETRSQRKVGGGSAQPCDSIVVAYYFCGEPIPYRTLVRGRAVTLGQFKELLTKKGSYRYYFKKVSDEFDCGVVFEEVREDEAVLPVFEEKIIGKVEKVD

Tests used:
[1] = target: Axin1, HA-tagged (human) (UniProt O15169); test: co-IP; GC cells cotransfected with plasmids encoding TRIM11 and Axin1 or Axin2 for 36 h; 500-800 ug lysate protein incubated with anti-FLAG, anti-HA or anti-Myc beads at 4°C for 2-4 h; washed with lysis buffer; western blot with anti-FLAG, anti-HA, anti-Myc
[2] = target: Axin2 (human), Q9Y2T1; test: as above; settings: remark: other sources report otherwise

B1: Tripartite motif 11 (TRIM11), FLAG-tagged (protein, UniProt Q96F44 1-468)
chain: MAAPDLSTNLQEEATCAICLDYFTDPVMTDCGHNFCRECIRRCWGQPEGPYACPECRELSPQRNLRPNRPLAKMAEMARRLHPPSPVPQGVCPAHREPLAAFCGDELRLLCAACERSGEHWAHRVRPLQDAAEDLKAKLEKSLEHLRKQMQDALLFQAQADETCVLWQKMVESQRQNVLGEFERLRRLLAEEEQQLLQRLEEEELEVLPRLREGAAHLGQQSAHLAELIAELEGRCQLPALGLLQDIKDALRRVQDVKLQPPEVVPMELRTVCRVPGLVETLRRFRGDVTLDPDTANPELILSEDRRSVQRGDLRQALPDSPERFDPGPCVLGQERFTSGRHYWEVEVGDRTSWALGVCRENVNRKEKGELSAGNGFWILVFLGSYYNSSERALAPLRDPPRRVGIFLDYEAGHLSFYSATDGSLLFIFPEIPFSGTLRPLFSPLSSSPTPMTICRPKGGSGDTLAPQ
[1]
  binding: binds

B2: Tripartite motif 11 (TRIM11), FLAG-tagged, Q96F44 1-468 (protein)
chain: B1 chain
[2]
  binding: no binding
